Results deposited as PubChem BioAssay AID686943 (Drosophila RNAi Screening Center, 2013)

- Aim: 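Search across the genome for regulators of signalling from receptor tyrosine kinase to ERK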 (primary screen)
- Cell system: Drosophila S2R+ haemocyte-like cells expressing YFP-tagged ERK (Rolled)
- Reagents: long dsRNA against Drosophila genes
- Treatment: insulin stimulation versus unstimulated cells; dose and duration not given
- Measured: 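Per-plate z-scores of phospho-ERK immunostaining normalised to YFP-tagged ERK, measured with and without insulin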
- Direction: replicate 1, z-score of dpERK with insulin: higher = more active ERK per ERK-YFP after insulin
The deposit covers about 23,000 reagents; shown is an unselected part of those with a known target gene and a result. 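Extra replicates exist only for a retested subset of genes; insulin dose and duration not given; both raised and lowered dpERK matter.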 Further read-outs or replicates are left out here. The record does not give: the amount of reagent, the time to read-out.

CG4325 (GeneID 31167) [DRSC18516] showed replicate 1, z-score of dpERK with insulin 0. With knock-down of CG12725 (GeneID 32298) [DRSC19501] the results were replicate 1, z-score of dpERK with insulin 0.21. With knock-down of Cyp313a2 (GeneID 41487) [DRSC16625], the screen gave replicate 1, z-score of dpERK with insulin 0.07. Depletion of Axud1 (GeneID 33419) [DRSC00270] resulted in: replicate 1, z-score of dpERK with insulin 0.09. CG33757 (GeneID 3772602) [DRSC05159] gave replicate 1, z-score of dpERK with insulin 0.34. For Aduk (GeneID 41112) [DRSC16451], the entry reads replicate 1, z-score of dpERK with insulin 0.58.

CG17477 (GeneID 42067) [DRSC15239] scored replicate 1, z-score of dpERK with insulin -0.5. Knock-down of CG11498 (GeneID 43585) [DRSC14315] gave: replicate 1, z-score of dpERK with insulin 0.51. Inx6 (GeneID 31645) [DRSC20579] gave replicate 1, z-score of dpERK with insulin -0.43. Silencing of trn (GeneID 39491) [DRSC11407] came out at: replicate 1, z-score of dpERK with insulin -0.43. Rab9Fb (GeneID 32029) [DRSC19854] gave replicate 1, z-score of dpERK with insulin -0.18. Reepl1 (GeneID 32103) [DRSC19418] scored replicate 1, z-score of dpERK with insulin 1.15.

IntS2 (GeneID 32745) [DRSC20094] scored replicate 1, z-score of dpERK with insulin -2.75. fu (GeneID 32855) [DRSC20333] gave replicate 1, z-score of dpERK with insulin -1.59. Against Nxt1 (GeneID 37769) [DRSC04630], the entry reads replicate 1, z-score of dpERK with insulin -0.15. For Klp31E (GeneID 34422) [DRSC03354], the values are replicate 1, z-score of dpERK with insulin 0.6. CG43132 (retired record) (GeneID 12797985) [DRSC19484] showed replicate 1, z-score of dpERK with insulin -0.07. Silencing of CG34289 (GeneID 5740640) [DRSC13625] resulted in: replicate 1, z-score of dpERK with insulin 0.31.

Knock-down of Dus1 (GeneID 33190) [DRSC00623] resulted in: replicate 1, z-score of dpERK with insulin -0.05. Silencing of CG30082 (GeneID 246443) [DRSC22945] gave: replicate 1, z-score of dpERK with insulin 1.39. Knock-down of Wdr24 (GeneID 43505) [DRSC14151] gave: replicate 1, z-score of dpERK with insulin -0.07. Depletion of CR12798 (GeneID 10178819) [DRSC21078] gave: replicate 1, z-score of dpERK with insulin 0.16. With knock-down of CG1894 (GeneID 43378) [DRSC15396], the record shows replicate 1, z-score of dpERK with insulin 0.44. After knock-down of CG15864 (GeneID 50001) [DRSC15122] the results were replicate 1, z-score of dpERK with insulin -0.04.

Rab4 (GeneID 36992) [DRSC07524] showed replicate 1, z-score of dpERK with insulin -1.09. With knock-down of P5CS (GeneID 40443) [DRSC11831], the record shows replicate 1, z-score of dpERK with insulin 0.02. With knock-down of P5CS (GeneID 40443) [DRSC11832], the record shows replicate 1, z-score of dpERK with insulin -0.19. Depletion of Nha1 (GeneID 33961) [DRSC02109] came out at: replicate 1, z-score of dpERK with insulin 0.33. For Syx17 (GeneID 38541) [DRSC08591], the entry reads replicate 1, z-score of dpERK with insulin 0.27. Knock-down of Muc11A (GeneID 32174) [DRSC19498] resulted in: replicate 1, z-score of dpERK with insulin 0.17.

CG14453 (GeneID 40484) [DRSC11710] gave replicate 1, z-score of dpERK with insulin -0.19. Against IKKbeta (GeneID 44432) [DRSC16714], the entry reads replicate 1, z-score of dpERK with insulin 0.15. Depletion of mod(mdg4) (GeneID 49228) [DRSC13474] gave: replicate 1, z-score of dpERK with insulin 0.51. With knock-down of mod(mdg4) (GeneID 49228) [DRSC13475], the screen gave replicate 1, z-score of dpERK with insulin -0.05. Knock-down of mod(mdg4) (GeneID 49228) [DRSC13478] came out at: replicate 1, z-score of dpERK with insulin 1.08. With knock-down of mod(mdg4) (GeneID 49228) [DRSC13479] the results were replicate 1, z-score of dpERK with insulin 0.77.

mod(mdg4) (GeneID 49228) [DRSC15042] gave replicate 1, z-score of dpERK with insulin -0.73. mod(mdg4) (GeneID 49228) [DRSC17000] gave replicate 1, z-score of dpERK with insulin 0.18. For CG1504 (GeneID 33028) [DRSC20513], the entry reads replicate 1, z-score of dpERK with insulin -0.87. dpn (GeneID 35800) [DRSC07605] showed replicate 1, z-score of dpERK with insulin 0.47.
